Source: patent US20150337013A1 (priority 2008, published 2015)

Assay: general procedure: peptide synthesis; acid chloride; EDC/HOBT/DMAP
Settings: lipidation step, TFA salt

With “N-{1-[(E)-3-(4-pentylphenyl)but-2-enoyl]}-L-tryptophyl-D-asparaginyl-L-α-aspartyl-L-threonylglycyl-L-ornithyl-L-α-aspartyl-D-alanyl-L-α-aspartylglycyl-D-seryl-(3R)-3-methyl-L-α-glutamyl-(αS)-α,2-diamino-γ-oxobenzenebutanoic acid (13→4)-lactone” the “final HPLC purity” value was 87.0%.
